Key:
[1] = tested on: H3 peptide (1–17) (H3K9me0); assay: ITC, H3 (H3K9me0) peptide (1-17) titrated into UHRF1 proteins; format: binding; details: H3 in syringe; for N: ITC stoichiometry; for ΔH / ΔS: ITC
Description: (§1) For competition ITC experiments: the indicated proteins were pre-incubated with competitive peptide, protein or hm-DNA (at 1:2 molar ratio if not specified) for 10 min followed by ITC measurements as described above. Proteins, DNA and peptides were prepared within ITC buffer containing 10 mM HEPES, pH 8.0, 100 mM NaCl. The data were fitted by software Origin 7.0. All ITC results were summarized in Supplementary Table 2 and raw data were shown in Supplementary Fig. 9.

[2] = tested on: H3K9me3 peptide (1–17); assay: ITC, H3K9me3 peptide (1-17) titrated into UHRF1 proteins; format: binding
Description: as §1

[3] = tested on: PHD (residues 307–366) of UHRF1; assay: ITC, PHD titrated into UHRF1 domains; format: binding, human; details: PHD in syringe
Description: as §1

[4] = tested on: hm-DNA (12 bp); assay: ITC, hm-DNA titrated into UHRF1 domains; format: binding; details: hm-DNA in syringe
Description: as §1

[5] = ITC, H3K9me3 in syringe, named protein in cell

Work on “PHD: plant homeodomain of human UHRF1 (residues 307–366) (DDVNRLCRVCACHLCGGRQDPDKQLMCDECDMAFHIYCLDPPLSSVPSEDEWYCPECRND; UniProt Q96T88 307-366, looked up, fragment)” yielded an N [1] of 0.935±0.00653, a ΔH [1] of -6.377 ± 0.06292 kcal/mol and a ΔS [1] of 6.08 cal/mol/deg.
With “SRA: SET-and-RING-associated domain of human UHRF1 (residues 414–617)” the “N of H3K9me3 binding to the TTD in the presence of the named protein” value ([2]; competition ITC, 1:2) was 1.29±0.00646, the “ΔH of H3K9me3 binding to the TTD in the presence of the named protein” value ([2]; competition ITC, 1:2) was -7.415 ± 0.05315 kcal/mol and the “ΔS of H3K9me3 binding to the TTD in the presence of the named protein” value ([2]; competition ITC, 1:2) was 2.25 cal/mol/deg. It also gave an N ([3]; ITC stoichiometry) of 0.823±0.16, a ΔH ([3]; ITC) of -3.506 ± 0.9792 kcal/mol and a ΔS ([3]; ITC) of 9.34 cal/mol/deg. It also gave an N ([4]; ITC stoichiometry) of 1.25±0.0495, a ΔH ([4]; ITC) of -2.648 ± 0.2213 kcal/mol and a ΔS ([4]; ITC) of 12.0 cal/mol/deg.
“UHRF1: recombinant human UHRF1 (residues 1–793); GFP-tagged in the cell assay” showed an N ([2]; ITC stoichiometry, H3K9me3 in syringe, named protein in cell) of 1.05±0.0196, a ΔH [2, 5] of -4.646E4±1233 cal/mol and a ΔS [2, 5] of -57.3 cal/mol/deg. It also gave an N [1] of 1.18±0.063, a ΔH [1] of -7.147 ± 0.738 kcal/mol and a ΔS [1] of -3.41 cal/mol/deg.

Reference: paper PMC4822050, “Hemi-methylated DNA opens a closed conformation of UHRF1 to facilitate its histone recognition” (Nature Communications, 2016)
